Source: paper PMC10177872
No constants are given. Whether binding was seen depends on the method and setting. Binding seen in cells or lysates may run through a third protein. Here binding means that the protein was enriched with, or labelled near, the bait; the list need not be complete.

Protein sequences, listed by entry. Tags and fused reporters are not part of them. Lines headed by an entry give the natural chain unless they say otherwise; changes in a name come on top.
UniProt Q60710: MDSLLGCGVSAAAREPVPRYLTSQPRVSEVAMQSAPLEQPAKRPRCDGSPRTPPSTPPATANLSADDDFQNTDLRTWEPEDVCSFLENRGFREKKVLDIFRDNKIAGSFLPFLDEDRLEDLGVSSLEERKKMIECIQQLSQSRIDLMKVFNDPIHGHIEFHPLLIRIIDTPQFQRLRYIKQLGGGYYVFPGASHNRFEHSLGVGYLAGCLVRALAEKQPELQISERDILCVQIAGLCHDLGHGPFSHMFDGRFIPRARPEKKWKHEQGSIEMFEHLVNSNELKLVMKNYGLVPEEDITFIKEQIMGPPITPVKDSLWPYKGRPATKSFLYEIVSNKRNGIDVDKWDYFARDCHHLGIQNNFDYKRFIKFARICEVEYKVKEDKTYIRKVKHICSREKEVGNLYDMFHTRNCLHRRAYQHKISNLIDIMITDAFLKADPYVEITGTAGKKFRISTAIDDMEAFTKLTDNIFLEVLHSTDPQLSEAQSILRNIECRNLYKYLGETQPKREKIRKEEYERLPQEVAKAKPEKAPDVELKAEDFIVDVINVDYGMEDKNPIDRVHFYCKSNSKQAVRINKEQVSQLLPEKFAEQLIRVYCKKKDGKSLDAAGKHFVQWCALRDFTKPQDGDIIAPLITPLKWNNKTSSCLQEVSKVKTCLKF
UniProt Q60932: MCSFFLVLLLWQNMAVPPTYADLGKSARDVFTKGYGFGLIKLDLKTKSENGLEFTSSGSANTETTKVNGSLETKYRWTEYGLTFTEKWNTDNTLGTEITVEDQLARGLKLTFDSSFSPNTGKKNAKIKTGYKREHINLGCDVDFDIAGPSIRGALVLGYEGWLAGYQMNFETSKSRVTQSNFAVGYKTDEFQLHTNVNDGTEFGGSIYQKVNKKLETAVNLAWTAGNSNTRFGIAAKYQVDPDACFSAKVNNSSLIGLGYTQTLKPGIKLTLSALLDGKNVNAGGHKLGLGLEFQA

Biological target: SAM and HD domain-containing deoxynucleoside triphosphate triphosphohydrolase 1 (SAMHD1) (mouse (endogenous in RAW264.7)) (UniProt Q60710)
Assay: affinity purification with mass spectrometry; IP with SAMHD1 antibodies and protein A/G agarose beads from non-denatured lysates of RAW264.7 cells; lanes cut from Bis-Tris gels for mass spectrometry

binding: binds
Substance: voltage-dependent anion channel-1 (VDAC1) (from UniProt Q60932)
